# Melanoma cell counts after drug treatment

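Human melanoma cell lines in 1,536-well plates were treated with two drugs together for 72 h, then fixed, stained and imaged. The read-out is cell count (nuclei) in % of the DMSO control; lower values mean stronger growth inhibition or killing. Concentrations were fixed for each drug; these are the higher of two levels. No replicate spread is given; individual values may be noisy.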
An unselected part of the screen is shown.

Compounds and concentrations:
Src-I1 (10000 nM): COc1cc2ncnc(Nc3ccc(Oc4ccccc4)cc3)c2cc1OC
STA-4783 (30 nM): CN(NC(=O)CC(=O)NN(C)C(=S)c1ccccc1)C(=S)c1ccccc1
PF-562271 (400 nM): CN(c1ncccc1CNc1nc(Nc2ccc3c(c2)CC(=O)N3)ncc1C(F)(F)F)S(C)(=O)=O
sorafenib (2000 nM): CNC(=O)c1cc(Oc2ccc(NC(=O)Nc3ccc(Cl)c(C(F)(F)F)c3)cc2)ccn1
dovitinib (500 nM): CN1CCN(c2ccc3nc(-c4c(N)c5c(F)cccc5[nH]c4=O)[nH]c3c2)CC1
IMD-0354 (80 nM): O=C(Nc1cc(C(F)(F)F)cc(C(F)(F)F)c1)c1cc(Cl)ccc1O
bexarotene (10000 nM): C=C(c1ccc(C(=O)O)cc1)c1cc2c(cc1C)C(C)(C)CCC2(C)C
TCS401 (8330 nM): O=C(O)C(=O)Nc1sc2c(c1C(=O)O)CCNC2
vorinostat (400 nM): O=C(CCCCCCC(=O)Nc1ccccc1)NO
decitabine (500 nM): Nc1ncn([C@H]2C[C@H](O)[C@@H](CO)O2)c(=O)n1

Combination	COLO 800	COLO 792	WM3619	COLO 829	C32	WM451Lu
bexarotene + PF-562271	102	55.6	94.0	43.2	76.4	57.5
decitabine + STA-4783	51.2	60.7	112	74.0	65.9	87.8
dovitinib + bexarotene	62.5	61.2	91.5	64.3	102	97.5
decitabine + TCS401	82.4	77.6	83.2	74.3	118	81.8
dovitinib + decitabine	44.4	47.0	67.0	63.9	85.4	82.2
sorafenib + STA-4783	18.1	23.6	10.9	59.7	10.8	85.8
dovitinib + TCS401	165	82.7	74.4	54.5	85.2	91.9
PF-562271 + IMD-0354	59.8	71.0	90.6	98.1	79.9	64.5
bexarotene + sorafenib	85.0	79.3	74.8	54.8	119	88.4
bexarotene + decitabine	64.9	69.1	73.7	60.2	112	98.1
sorafenib + Src-I1	83.0	71.8	51.7	117	109	71.5
IMD-0354 + sorafenib	67.0	76.6	88.7	101	89.4	73.1
TCS401 + vorinostat	82.0	76.9	71.1	83.1	93.9	68.6
sorafenib + dovitinib	58.3	40.6	67.5	74.3	82.9	71.3
dovitinib + Src-I1	122	58.9	84.5	91.1	98.9	76.7
PF-562271 + vorinostat	93.7	70.2	83.0	64.4	70.9	69.6
bexarotene + STA-4783	11.1	24.0	4.6	35.2	27.5	76.5
decitabine + Src-I1	96.0	79.9	84.5	99.8	89.0	90.7
STA-4783 + Src-I1	8.6	18.6	7.3	56.4	25.2	55.9
decitabine + sorafenib	91.0	120	79.0	83.5	106	91.9
vorinostat + Src-I1	141	70.6	66.1	105	102	67.8
STA-4783 + vorinostat	12.9	18.0	14.8	54.3	30.2	58.7
dovitinib + PF-562271	64.8	47.1	79.8	42.2	67.2	56.1
PF-562271 + sorafenib	131	84.6	91.3	81.8	75.7	69.4
STA-4783 + dovitinib	18.5	29.1	5.7	65.2	17.0	93.5
vorinostat + dovitinib	63.8	44.0	69.9	63.5	75.5	87.1
STA-4783 + PF-562271	24.1	27.3	3.3	45.2	11.9	64.3
TCS401 + bexarotene	180	122	80.7	74.8	96.2	94.6
STA-4783 + IMD-0354	20.1	41.8	4.5	51.6	25.9	76.9
IMD-0354 + bexarotene	72.5	95.2	80.4	73.6	99.1	78.8
bexarotene + Src-I1	82.3	69.7	75.5	102	98.6	93.1
TCS401 + STA-4783	25.0	32.7	5.8	56.3	27.0	94.1
TCS401 + sorafenib	113	88.0	98.7	120	113	106

Repeated from the top, 2 entries:

* bexarotene + PF-562271 : COLO 800: 102; COLO 792: 55.6; WM3619: 94.0; COLO 829: 43.2; C32: 76.4; WM451Lu: 57.5
* decitabine + STA-4783 : COLO 800: 51.2; COLO 792: 60.7; WM3619: 112; COLO 829: 74.0; C32: 65.9; WM451Lu: 87.8

Data from the primary screen of doi:10.1371/journal.pone.0140310, rounded.